From PMC12407359
These are yes or no findings as the source states them, for the method shown. In cells and extracts the contact can be indirect. Some results given as binding are weak or reduced against the parent protein; the word gives no strength.

By UniProt entry, the sequences of proteins in these tests, tags left out.
UniProt P29351: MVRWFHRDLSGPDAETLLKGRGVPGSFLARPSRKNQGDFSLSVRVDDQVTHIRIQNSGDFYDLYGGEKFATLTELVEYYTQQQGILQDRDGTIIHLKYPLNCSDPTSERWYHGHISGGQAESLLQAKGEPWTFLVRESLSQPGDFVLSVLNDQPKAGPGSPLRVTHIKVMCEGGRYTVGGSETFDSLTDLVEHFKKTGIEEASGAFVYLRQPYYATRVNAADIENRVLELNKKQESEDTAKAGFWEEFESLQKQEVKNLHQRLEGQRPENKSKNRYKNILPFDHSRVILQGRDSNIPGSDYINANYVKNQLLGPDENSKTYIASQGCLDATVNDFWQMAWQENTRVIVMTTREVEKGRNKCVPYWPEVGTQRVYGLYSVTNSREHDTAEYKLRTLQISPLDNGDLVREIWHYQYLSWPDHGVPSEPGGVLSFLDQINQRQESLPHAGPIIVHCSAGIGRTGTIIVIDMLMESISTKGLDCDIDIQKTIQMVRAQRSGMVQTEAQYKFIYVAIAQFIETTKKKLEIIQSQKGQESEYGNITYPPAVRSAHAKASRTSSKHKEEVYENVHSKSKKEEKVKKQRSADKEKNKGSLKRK

Molecular target: T1, Signaling lymphocyte activation molecule family 3 (SLAMF3) (mouse (endogenous in macrophages from mouse liver metastases)) (UniProt Q01965)
T1 sequence: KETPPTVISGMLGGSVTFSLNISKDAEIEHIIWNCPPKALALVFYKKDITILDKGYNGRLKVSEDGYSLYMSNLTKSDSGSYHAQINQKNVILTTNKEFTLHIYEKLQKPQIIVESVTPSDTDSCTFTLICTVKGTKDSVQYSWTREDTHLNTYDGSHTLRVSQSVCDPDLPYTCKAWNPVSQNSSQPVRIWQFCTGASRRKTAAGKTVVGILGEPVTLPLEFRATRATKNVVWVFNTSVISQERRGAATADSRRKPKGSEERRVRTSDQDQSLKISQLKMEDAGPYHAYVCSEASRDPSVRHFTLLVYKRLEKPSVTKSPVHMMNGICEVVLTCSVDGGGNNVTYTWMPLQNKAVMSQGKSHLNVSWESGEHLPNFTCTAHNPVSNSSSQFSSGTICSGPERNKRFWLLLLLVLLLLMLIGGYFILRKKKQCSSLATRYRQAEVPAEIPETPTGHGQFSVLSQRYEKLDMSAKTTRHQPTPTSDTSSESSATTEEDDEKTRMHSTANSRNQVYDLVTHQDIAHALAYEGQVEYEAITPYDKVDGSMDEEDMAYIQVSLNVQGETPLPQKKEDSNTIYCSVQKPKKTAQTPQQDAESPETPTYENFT
Assay: co-IP; endogenous proteins in macrophages isolated from mouse liver metastases formed by MC38-P, MC38-LM3b-shScramble and MC38-LM3b-shSLAMF3 cells; procedure as in cited references

Question: For “SHP-1 (from UniProt P29351 1-595) (enzyme)”, which binding is on record?
Answer: binds
